The text below walks through data of paper PMC8749417.

The target of the assay is T1, Flag-pGSDMD-194-488 (porcine) (UniProt F1SEV7).
T1 sequence: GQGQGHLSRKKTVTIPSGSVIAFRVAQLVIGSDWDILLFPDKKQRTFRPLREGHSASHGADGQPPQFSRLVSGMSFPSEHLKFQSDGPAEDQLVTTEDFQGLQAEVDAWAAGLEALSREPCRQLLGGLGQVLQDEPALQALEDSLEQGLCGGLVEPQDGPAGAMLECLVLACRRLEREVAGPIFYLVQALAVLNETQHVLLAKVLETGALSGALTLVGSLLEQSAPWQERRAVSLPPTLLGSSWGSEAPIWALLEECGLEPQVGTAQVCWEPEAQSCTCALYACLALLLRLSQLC
In words: co-IP; HEK293T cells transfected for 24 h, lysed; supernatants incubated with anti-Flag binding beads at 4°C overnight, washed with TBS 5 times, immunoblot. On the technique in general: In western blotting, separated proteins are transferred to a membrane and probed.

Results are given in words; binding and its absence hold for the method and conditions named. Binding seen in cells or lysates may run through a third protein. Sequences can lack the tags named with a protein.

B1: porcine Caspase-1, HA-tagged (HA-pCaspase-1) (enzyme, UniProt Q9N2I1 1-404)
chain: MADKVLKEKRRLFVRSVAMGTINGLLDELLETRVLNQEEVEIVRGENATVMDKARALIDSVIRKGPQACQICINHICGDDPHLAGVLELSTGSQSGKCLTVQESQAVVPPFPAPQTVQDNPVKPASSEPRGSLKLCPPDIAQRLWKEKSAEIYPIMGKSIRTRLALIICNTEFENLPRRDGADVDIRDMKILLEDLGYSVDVRENLTASDMAIELKAFAARPEHKSSDSTFLVLMSHGIQAGICGKKYSEEVPDVLEVNTVFQILNTLNCPSLKDKPKVIIIQACRGEKQGVVWIKDSVGPSGNSSLLAAEDFEYDAIKKAHIEKDFIAFCSSTPDNVSWRHPLLGSLFIIKLIKILQEHAWSCGLEEIFRKVRFSFELADGRAQMPTAERVTLTRSFYLFPGH
Turning to B1, the binding entry is listed as “no binding”.
